Measured values: publication PMC11379392
No constants are given. Whether binding was seen depends on the method and setting. Binding seen in cells or lysates may run through a third protein.

Chains of the proteins cited; added tags and fusions are not shown.
UniProt Q2HR95: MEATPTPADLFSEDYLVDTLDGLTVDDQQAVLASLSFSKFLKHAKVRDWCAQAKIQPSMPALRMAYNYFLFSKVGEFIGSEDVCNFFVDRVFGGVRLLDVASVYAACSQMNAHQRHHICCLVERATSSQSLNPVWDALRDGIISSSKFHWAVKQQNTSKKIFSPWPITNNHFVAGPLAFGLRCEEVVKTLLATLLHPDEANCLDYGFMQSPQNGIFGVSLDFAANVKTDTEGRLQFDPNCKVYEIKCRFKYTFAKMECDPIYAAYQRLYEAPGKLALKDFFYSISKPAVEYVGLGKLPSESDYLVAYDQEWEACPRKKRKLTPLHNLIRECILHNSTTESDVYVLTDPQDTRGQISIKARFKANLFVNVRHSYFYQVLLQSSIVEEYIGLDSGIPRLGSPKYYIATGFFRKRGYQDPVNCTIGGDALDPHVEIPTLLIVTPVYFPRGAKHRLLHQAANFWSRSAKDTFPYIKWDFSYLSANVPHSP
UniProt Q86WV6: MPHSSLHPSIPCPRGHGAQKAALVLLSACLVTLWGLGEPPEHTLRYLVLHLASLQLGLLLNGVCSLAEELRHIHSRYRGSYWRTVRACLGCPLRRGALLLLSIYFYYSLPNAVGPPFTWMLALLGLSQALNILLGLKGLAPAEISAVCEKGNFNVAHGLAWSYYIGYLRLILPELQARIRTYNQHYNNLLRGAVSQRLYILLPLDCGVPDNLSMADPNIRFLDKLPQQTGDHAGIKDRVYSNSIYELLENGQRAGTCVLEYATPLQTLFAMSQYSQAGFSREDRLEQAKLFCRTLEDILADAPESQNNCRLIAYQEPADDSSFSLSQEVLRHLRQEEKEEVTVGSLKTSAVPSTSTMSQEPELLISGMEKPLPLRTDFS

Biological target: STREP-ORF37 (KSHV ORF37, from pCDNA4.TO-ORF37-2xCSTREP) (Kaposi's sarcoma-associated herpesvirus (KSHV)) (UniProt Q2HR95)
Experiment: co-IP; HEK293T cells co-transfected with HA-STING and STREP-tagged ORFs, 48 h; lysates immunoprecipitated with STREP antibody and protein A/G beads; blots with HA or STREP antibodies

Which binding does the source give for HA-STING (from UniProt Q86WV6 1-379) here?
The binding was “no binding”.
